According to PubChem BioAssay AID662 (National Center for Advancing Translational Sciences (NCATS), 2007):
The other results are listed elsewhere or left out. These are further read-outs of the screen, such as a control signal, another cell line or another target. No call is given for them. Most of these compounds were active or inconclusive in the main read-out, so they are no random draw. Words in brackets tell the shape of the fitted curve; partial curves, single points and poor fits give uncertain potencies.

assay: Cell signaling CRE-BLA (Fsk stim); details: CHO CRE-bla reporter (cAMP response element driving beta-lactamase), forskolin EC10, beta-lactamase ratio; measured here: 460 nm blue channel
In short: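 CHO CRE-bla cells, overnight plating in Opti-MEM with 0.5% dialyzed FBS; cpd titration + EC10 NKH 477, 3 h 37 °C; CCF4 2 h RT; ex 405/em 460 vs 530 ratio → %Activity, AC50.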

| Compound | AC50 |
| --- | --- |
| COc1ccccc1CNC(=O)CCC(=O)Nc1nnc(C)s1 | 25.1 µM [rising, single point] |
| Cc1nnc(NC(=O)CSc2nnc(Cc3cccn3C)n2-c2ccccc2)s1 | 12.6 µM [rising, single point] |
| Cc1nn(Cc2ccc(Cl)c(Cl)c2)c(C)c1NC(=O)c1cc(-c2ccc3c(c2)OCO3)on1 | 6.31 µM [rising, partial curve] |
| CC1(C(=O)NC2CCCCCCC2)CCC(=O)N1CCN1CCOCC1 (stereo not drawn) | 25.1 µM [rising, single point] |
| CCOC(=O)c1cc(-c2ccco2)nc2c1c(C)nn2-c1ccccc1 | 3.16 µM [rising, full curve] |
| C[C@H]1C2=C3C(CC[C@H]4C(OCc5ccc(F)cc5C(F)(F)F)OC[C@](C)([C@@H]34)N(C(=O)OC(C)(C)C)C2)C(CO)C1CO (stereo partly drawn) | 7.94 µM [rising, partial curve] |
| CC1CCc2c(sc3nc(SCC(=O)NCc4ccco4)nc(N)c23)C1 (stereo not drawn) | 10 µM [rising, partial curve] |
| O=C(Nc1ccccc1C(=O)NCc1ccccc1)c1ccco1 | 3.98 µM [rising, partial curve] |
| COc1ccc(OC)c(C2=Nn3c(nnc3-c3cccc(OC(C)C)c3)SC2)c1 | 2 µM [rising, full curve] |
| Cc1cc(SCC#N)n2nc(C)c(-c3ccccc3)c2n1 | 3.16 µM [rising, partial curve] |
| CSC1=C(C#N)C(C)C2=C(CC(C)(C)CC2=O)N1 (stereo not drawn) | 12.6 µM [rising, partial curve, poor fit] |
| Cc1cccc(Nc2nnc(SCc3cn4ccsc4n3)s2)c1 | 12.6 µM [rising, partial curve] |
| O=C(Nc1ccc(CCC(=O)N2CCCC2)cc1)c1ncn[nH]1 | 0.00316 µM [falling, full curve, poor fit] |
| COCCn1c(SCC(=O)N2CCCc3ccccc32)nnc1-c1ccco1 | 12.6 µM [rising, single point] |
| CCOc1cc(-c2noc(CCC(=O)N3CCOCC3)n2)ccc1OC | 12.6 µM [rising, single point] |
| COc1cc(Cl)c(C)cc1NC(=O)COC(=O)c1cnc(C)cn1 | 0.00316 µM [falling, full curve, poor fit] |
| CC(=O)c1c(C(C)=O)c(C)n(NC(=O)c2cccnc2)c1C | 0.794 µM [falling, full curve] |
| Cc1c(CN(C)C)c2c(n1C)C(=O)c1ccc(Br)cc1-2 | 5.01 µM [rising, full curve] |
| O=C(CCS(=O)(=O)Cc1ccccc1F)N1CCc2ccccc2C1 | 0.0501 µM [falling, full curve] |
| CC1=C(C)C(=O)NC(Nc2nc(C)c3cc(C)cc(C)c3n2)N1 (stereo not drawn) | 0.2 µM [rising, full curve] |
| O=C(CCNS(=O)(=O)c1cccc2nsnc12)N1CCc2ccccc21 | 5.01 µM [falling, single point] |
| Cc1nnc(NC(=O)CSc2nc3c(c(=O)n2CCc2ccccc2)SC(C)C3)s1 (stereo not drawn) | 10 µM [rising, partial curve] |

| Compound | AC50 |
| --- | --- |
| COc1cccc(C2CC(=O)N3CN(c4ccccc4F)CSC3=C2C#N)c1 (stereo not drawn) | 10 µM [rising, single point] |
| COCCNc1nc(-c2cccc(NS(C)(=O)=O)c2)nc2ccccc12 | 3.98 µM [rising, full curve] |
| COc1cc(C2=NOC(C(=O)Nc3ccc(C)cc3)C2)cc(OC)c1OC (stereo not drawn) | 1.26 µM [rising, partial curve, poor fit] |
| Cc1cc(NC(=O)C2CCC2)n(-c2ccccn2)n1 | 5.01 µM [rising, partial curve] |
| Nc1ccc(SC(F)(F)F)cc1C(=O)c1ccccc1 | 25.1 µM [falling, single point] |
| Cc1ccc(C)c2[nH]c(=O)c(CN(CCCN(C)C)C(=O)NCc3ccccc3)cc12 | 31.6 µM [falling, partial curve] |
| CCNc1ncc2ncc(=O)n(Cc3ccc(F)cc3)c2n1 | 25.1 µM [rising, single point] |
| CCN(CC)c1ccc(NC(=O)c2cc(OC)cc(OC)c2)c(C)c1 | 10 µM [rising, partial curve] |
| CCOc1ccc2nc(NCCCNS(=O)(=O)c3ccccc3)c(C#N)cc2c1 | 10 µM [rising, partial curve] |
| C=CCn1nnnc1SCC(=O)Nc1ccccc1C(=O)OC | 0.00316 µM [falling, full curve, poor fit] |
| Cc1c2cccc(Sc3ccccc3)c2c2c3c(cccc13)[S+](c1ccccc1)C2 (stereo not drawn) | 3.16 µM [rising, single point] |
| CCOC(=O)CSC1=Nc2ccccc2C2=NC(CC(=O)NCc3cccs3)C(=O)N12 (stereo not drawn) | 0.0398 µM [rising, full curve] |
| CN(C)c1ccc(NC(=O)c2cc3c(=O)n4ccccc4nc3n2C)cc1 | 5.01 µM [rising, partial curve] |
| COc1cc(/C=C\c2ccc(OC)cc2OC)cc(OC)c1 | 2.51 µM [rising, full curve] |
| CCCCOCCCNC(=O)c1cccs1 | 0.0631 µM [rising, full curve] |
| COc1cc2c(cc1OC)/C(=C/C#N)NC(C)(C)C2 | 2 µM [rising, full curve] |
| CCCCC(=O)Nc1cccc(-c2nn3c(C)nnc3s2)c1 | 25.1 µM [rising, single point] |
| CCCCc1cc(=O)oc2c(CN3CCCC3)c(O)c(Cl)cc12 | 10 µM [rising, partial curve] |
| CC(C)C1N=C2c3ccccc3N=C(SCc3cc(=O)n4cc(Cl)ccc4n3)N2C1=O (stereo not drawn) | 0.126 µM [rising, full curve] |
| COc1ccc(-n2c(=O)cc(N3CCN(c4ccccc4F)CC3)[nH]c2=O)cc1 | 15.8 µM [rising, single point] |
| COc1ccc(S(=O)(=O)Cc2ccc(C(=O)N3CCN(c4cccc(C)c4C)CC3)o2)cc1 | 25.1 µM [falling, single point] |
